{
  "source": "patent US6180767A",
  "about": "(Thomas Jefferson University, priority 1997, dated 2001)",
  "assay": "general procedure: Boc solid-phase peptide synthesis",
  "conditions": "whole synthesis, calculated from area under HPLC peak",
  "data": [
    {"substance": "H-Gly-CCGCTTCCTTTC-Gly-Gly-Gly-Gly-D-Cys-D-Ser-D-Lys-D-Cys-NH2", "values": [
      {"measurement": "isolated yield", "value": "almost 90%"}
    ]}
  ]
}
